WO2013011062A2

Target: recombinant extracellular domain of human OSCAR (OSCAR-ECD) (human)
Experiment: SPR competition: OSCAR-ECD premixed with mAb over immobilized collagen I and II

binding: binds
B1: anti-OSCAR mAb 6F6B (antibody, V domains shown)
VH: EVQLQQSGAELVKPGASVKLSCTASGFNIKDTYVHWVKQRPDQGLEWIGRIDPAIGNTKYDPKFRGKATITADSSSNTAYLQLSSLTSEDTAVYYCARLSYGNYGLDYSMDYWGQGTSVTVSS
VL: DIVLTQSPATLSVTPGDSVSLSCRASQSITNNLHWYQQKSHESPRLLIKYASQSISGIPSRFRGSGSGTDFTLSINSVETEDFGVYFCQQSNTWPRTFGGGTKLEIKR

binding: binds
B2: anti-OSCAR mAb 16F56A2 (antibody, V domains shown)
VH: QVQLVQSGAEVKKPGSSVKVSCKASGGTFSNYAISWVRQAPGQGLEWMGRIIPILGIAHNAQKFQDRVTITADKSTSTAYMELSSLRSEDTAVYYCASPSSGKGLPYWFFDLWGRGTLVTVSS
VL: DIQMTQSPSFLSASVGDRVTITCRASQSISSYLNWYQQKPGKAPKLLIYAASSLQSGVPSRFSGSGSGTDFTLTISSLQPEDFATYYCQCGYSTPLTFGGGTKVEIKR

No constants are given. Whether binding was seen depends on the method and setting. A result given as binding can be weak or reduced; the word gives no strength. Each block holds one binder with its values, some of them ahead of it.
